PubChem BioAssay AID652243, Drosophila RNAi Screening Center – 2013

Screen: 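Fly genes required for human androgen receptor driven transcription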 (primary screen)
Cells: Drosophila S2R+ cells
Reagents: long dsRNA against Drosophila genes
Time to read-out: 72 h (48 h, then 24 h hormone)
Conditions: synthetic androgen R1881 at 10 nM for 24 h
Detection: 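Per-well raw luminescence of the androgen-driven firefly reporter and of the Renilla control, two replicates each, without normalisation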
Reading the numbers: firefly reporter light: higher = more light from androgen-responsive reporter; Renilla control light: higher = more constitutive control signal (cell number, transfection)
Hit rule: 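Across duplicate plates, a knock-down whose log firefly/Renilla ratio shifted a set fold down or up from the GFP/LacZ control mean was a hit; the downward cut appears as both 1.5 and 3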
Meaning of the calls: active = hit: reporter lowered or raised; inactive = no hit
The deposit covers about 24,000 reagents; shown is an unselected part of those that have a named target and a result. Of all reagents, 246 (1%) got an active call. 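Plates not normalised; calls are printed but the firefly/Renilla ratio behind them is not deposited; fold cut for lowering reported inconsistently.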 Raw values vary from plate to plate and are shown uncorrected. Reagents against one gene are numbered here. Names joined by + are all predicted targets of the reagent. Not stated in the record: the amount of reagent.

| firefly reporter light, replicate 1 | firefly reporter light, replicate 2 | Renilla control light, replicate 1 | Renilla control light, replicate 2 | outcome | gene | reagent no. |
| --- | --- | --- | --- | --- | --- | --- |
| 2.56e5 | 4.28e5 | 3.22e6 | 3.04e6 | inactive | boil (boilerman) | 1 |
| 4.20e5 | 7.00e5 | 1.13e6 | 1.86e6 | inactive | CAH4 (Carbonic anhydrase 4) | 1 |
| 14295 | 10104 | 1.38e5 | 1.42e5 | inactive | Mo25 | 1 |
| 52343 | 61338 | 4.68e5 | 4.72e5 | inactive | CG33096 | 1 |
| 2.88e5 | 4.79e5 | 8.00e5 | 7.96e5 | inactive | CG33096 | 2 |
| 2.22e5 | 1.90e5 | 2.57e6 | 2.75e6 | inactive | CG14855 | 1 |
| 5.38e5 | 5.41e5 | 9.22e5 | 9.63e5 | inactive | CG14855 | 2 |
| 1.02e6 | 8.30e5 | 2.27e6 | 2.00e6 | inactive | CG14855 | 3 |
| 1.12e5 | 1.42e5 | 1.06e6 | 1.01e6 | inactive | gkt (glaikit) | 1 |
| 1.92e5 | 1.92e5 | 2.59e6 | 2.28e6 | inactive | CG6726 | 1 |
| 4.02e5 | 4.39e5 | 1.58e6 | 1.51e6 | inactive | CG6726 | 2 |
| 7.71e5 | 6.24e5 | 1.98e6 | 1.28e6 | inactive | CG18557 | 1 |
| 2.12e5 | 2.52e5 | 1.87e6 | 1.35e6 | inactive | CG10026 | 1 |
| 1.30e6 | 1.19e6 | 2.43e6 | 2.22e6 | inactive | CG33137 | 1 |
| 5.34e5 | 5.76e5 | 2.43e6 | 2.69e6 | inactive | CG15201 | 1 |
| 3.33e5 | 2.89e5 | 3.14e6 | 3.13e6 | inactive | TotB (Turandot B) | 1 |
| 3.21e5 | 3.01e5 | 2.00e6 | 1.74e6 | inactive | Snp (Snipper) | 1 |
| 7.66e5 | 7.03e5 | 2.04e6 | 1.99e6 | inactive | Snp (Snipper) | 2 |
| 99476 | 1.08e5 | 1.52e6 | 2.10e6 | inactive | bel (belle) | 1 |
| 7.65e5 | 6.98e5 | 7.87e5 | 7.43e5 | inactive | bel (belle) | 2 |
| 2.10e5 | 2.60e5 | 2.75e6 | 2.20e6 | inactive | Eig71Ed (Ecdysone-induced gene 71Ed) | 1 |
| 4.89e5 | 6.78e5 | 1.37e6 | 1.80e6 | inactive | T3dh (Type III alcohol dehydrogenase) | 1 |
| 79928 | 1.42e5 | 2.38e5 | 3.23e5 | inactive | CG8229 + CG33199 | 1 |
| 1.77e5 | 1.75e5 | 4.49e5 | 5.51e5 | inactive | CG8229 + CG33199 | 2 |
